Values of other authors, collected in patent US20250032468A1, “OCULAR SURFACE TOPICAL ADMINISTRATION OF ROFLUMILAST FOR TREATMENT OF ANTERIOR AND RETINAL-VITREOUS CHAMBER OCULAR DISEASES” (IOLYX THERAPEUTICS, INC., priority 2023, published 2025).
At least one compound was matched to its structure with a doubt left.

Tested on: human monocytes, corneal epithelial cells, or conjunctival fibroblasts
Details: read-out: IC50 of relevant immune cells; cited from earlier work

Which IC50 does the source give for `CCOC(=O)O[C@]1(C(=O)OCCl)CC[C@H]2[C@@H]3CCC4=CC(=O)C=C[C@]4(C)[C@H]3[C@@H](O)C[C@@]21C` [Loteprednol] here?
Its IC50 is < 10 nM.
